Experimental findings from PubChem BioAssay (NCATS) are described below.

Structures are written as SMILES. Several values for one entry are separate records, joined by “and”; a condition that tells them apart may be missing. Equal entries are not always repeated. Some of the results follow. Shown are side measurements of this screen, not its main read-out; they come without a call. For part of these data: The list favours compounds with an active or inconclusive main result. For part of these data: Words in brackets tell the shape of the fitted curve; partial curves, single points and poor fits give uncertain potencies.

Experiment [1] in a line: qHTS Assay for Modulators of Human Peripheral Myelin Protein 22 (PMP22) Expression/Activity (AID 1967). The following applies: Cell-based PMP22 reporter, dual-color luciferase ratio. In outline: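 Engineered MSC80 cells, Pmp22-promoter green and EF-alpha red luciferase reporters; 24h compound treatment at 37 °C. Concentration-response fits on green, red and ratio signals, each overlap-corrected, with %Activity normalized to untreated wells.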

Experiment [2] can be described thus: Nrf2 qHTS screen for inhibitors: Validation (AID 493153). The note with it: A549 ARE-Fluc reporter, 18-24 h; AC50: CellTiter-Fluor fluorescence read, measured here: cytotoxicity CellTiter-Fluor AC50; viability change: measured here: cytotoxicity max response. The method, boiled down: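 Luminescence from an ARE-firefly luciferase reporter in A549 cells gives Nrf2 inhibition; an earlier CellTiter-Fluor fluorescent read flags cytotoxicity. Cells in 5% FBS OPTI-MEM received compound dilution series for 18-24 h at 37°C.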

Experiment [3] can be described thus: qHTS assay for small molecule antagonists of peroxisome proliferator-activated receptor delta signaling (AID 588535).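 Note: cells co-treated with a PPAR-delta agonist as stimulator during compound exposure.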 The note with it: HEK293T PPARd-UAS-bla, beta-lactamase FRET ratio, 18 h; 460 nm channel. In outline:
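HEK293T PPAR-delta-UAS-bla cells, 4000/well, 2% charcoal/dextran FBS; 5 h 37 C; cpd titration; 18 h 37 C; CCF4 2 h RT; FI 460/530 nm; Hill fit → IC50, efficacy.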

A short description of experiment [4]: qHTS assay for small molecule antagonists of peroxisome proliferator-activated receptor gamma signaling (AID 588537). The following applies: HEK293 PPARg-UAS-bla, beta-lactamase ratio, antagonist mode; measured here: W460 blue channel. In outline: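 Antagonist mode, beta-lactamase reporter in HEK293; charcoal/dextran FBS 1%; 3000 cells/well, 37 C 6-6.5 h; cpd titration + rosiglitazone 50 nM final, 16 h 37 C; CCF4, 2 h RT; 460/530 nm; Hill fit → IC50, efficacy.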

Experiment [5] can be described thus: qHTS assay for small molecule agonists of retinoid X receptor alpha signaling (AID 588544). The note with it: HEK293T RXRa-UAS-bla, beta-lactamase reporter, 18 h; 530 nm emission.
Experiment [6] in a line: qHTS assay for small molecule antagonists of retinoid X receptor alpha signaling (AID 588546).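 Note: cells stimulated with 9-cis-retinoic acid as agonist; % is set by controls: 0 for no effect and ±100 for the full control effect.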 The following applies: HEK293T RXRa-UAS-bla, beta-lactamase ratio, antagonist mode; measured here: W530 green channel, cytotoxicity proxy. In outline: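 Beta-lactamase reporter inhibition, read as CCF4 fluorescence ratio (ex 405, em 460/530 nm) after 2 h at RT. HEK293T UAS-bla cells, 2500/well, were stimulated with 9-cis-RA at 500 or 100 nM final alongside test compound for 18 h at 37 C.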

Experiment [7] can be described thus: qHTS Validation Assay to Find Inhibitors of Chronic Active B-Cell Receptor Signaling (AID 485345). The following applies: ABC-DLBCL cells, chronic BCR signaling reporter. In outline: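 Read-out: ratio of filter-corrected green (IkappaBalpha fusion) to red (native) luciferase signal in doxycycline-induced TMD8 cells after 4 h at 37C. Titration spanned 46 uM–3 nM; Data were normalised to basal cells and 10 uM MG-132 wells.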

Experiment [8] in a line: qHTS Validation Assay for Iinhibitors of HIV-1 Budding by Blocking the Interaction of PTAP/TSG101 (AID 485342). The note with it: TSG101-PTAP binding, fluorescence polarization, 4-point titration; measured here: FITC channel readout. In outline: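 Compound wells held the Tsg101 binding domain (10 uM) and a FITC-conjugated PTAP peptide (50 nM) in buffer at pH 7.5 containing 0.15 M NaCl and 0.01% Tween 20; polarization was recorded after 20 min, r.t.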

The mark [9] stands for this setting: measured here: red reporter channel AC50, EF-alpha promoter control reporter in MSC80 mouse Schwann cells.
Setting [10] is: measured here: green reporter channel AC50, mouse Pmp22 promoter in mouse Schwann cells.
Where [11] appears, read: measured here: CBR control luciferase (viability counter).
[12] abbreviates: measured here: CBG/CBR ratio read-out.

As for `NC(CCCP(=O)(O)O)C(=O)O` (stereo unspecified), the concentration at half-maximal activity (AC50) in experiment [1] (setting [9]) was 15.1 µM [rising, partial curve, poor fit].
With `CN(C(=O)Cc1ccc(Cl)c(Cl)c1)C(CN1CCCC1)c1cccc(OCC(=O)O)c1` (stereo unspecified), in experiment [1] (setting [9]), the AC50 was 95.3 µM [falling, single point].
As for `C[C@]12N[C@H](Cc3ccccc31)c1ccccc12`, the AC50 in experiment [1] (setting [10]) was 95.3 µM [falling, single point].
For the compound `NCCCCN=C(N)N`, the AC50 in experiment [1] (setting [9]) was 95.3 µM [falling, single point].
On the same count and under the same terms, the same measure for `Nc1nc2[nH]c(=O)cnc2c(=O)[nH]1`: 84.9 µM [falling, single point].
On the same count and under the same terms, the same measure for `CCCN(CCC)[C@@H]1CCc2cccc(O)c2C1`: 10.7 µM [rising, partial curve].
Regarding `O=[N+]([O-])c1cc(O)c(O)c([N+](=O)[O-])c1`, the concentration at half-maximal activity (AC50) was 75.7 µM [rising, single point] in experiment [1] (setting [10]); 84.9 µM [falling, single point] in experiment [1] (setting [9]); 23.1 µM [falling, single point] in experiment [2]. The viability change in experiment [2] was -38.2%.
On to `C[C@]12CCC(=O)C=C1CC[C@@H]1[C@@H]2CC[C@]2(C)C(=O)CC[C@@H]12`, for which the AC50 in experiment [1] (setting [9]) was 84.9 µM [falling, single point]; in experiment [4] it was 44.7 µM [rising, partial curve, poor fit]. Moreover, the max response was 22.8% and 93.1% in experiment [3]; 39.3% and 32.2% in experiment [5]; 26.5% in experiment [6].
On to `C[N+]1(C)CCN(c2ccccc2)CC1`, for which the AC50 was 30.1 µM [falling, single point] in experiment [1] (setting [9]) and 0.731 µM [rising, full curve, poor fit] in experiment [7] (setting [11]).
As for `NCC(CP(=O)(O)O)c1ccc(Cl)cc1` (stereo unspecified), the AC50 in experiment [1] (setting [9]) is 84.9 µM [falling, single point]; in experiment [7] (setting [11]) it was 0.517 µM [rising, full curve, poor fit].
With `O=[N+]([O-])/C=C/c1ccc2c(c1)OCO2`, the AC50 is 4.61 µM [falling, single point] in experiment [7] (setting [12]); 16.4 µM [falling, single point] in experiment [7] (setting [11]); 16.4 µM [falling, partial curve] in experiment [2]. For the same compound, the viability change in experiment [2] was -52.7%.
On to `NC(=O)c1ccc(OCC(O)CN2CC=C(c3ccc(F)cc3)CC2)cc1` (stereo unspecified), for which the AC50 in experiment [1] (setting [10]) was 95.3 µM [falling, single point]; in experiment [1] (setting [9]) it was 33.8 µM [falling, partial curve, poor fit].
With `C[C@]12CC[C@@H]3c4ccc(O)cc4C[C@@H](CCCCCCCCCS(=O)CCCC(F)(F)C(F)(F)F)[C@H]3[C@@H]1CC[C@@H]2O` (stereo partly specified), in experiment [2], the viability change is -15.2%.
`Cc1c(OCC(F)(F)F)ccnc1CS(=O)c1nc2ccccc2[nH]1` (stereo unspecified): the AC50 in experiment [1] (setting [9]) is 95.3 µM [falling, single point]. The viability change in experiment [2] is -6.87%.
Consider `Nc1nc(OCc2ccccc2)c2[nH]cnc2n1`, for which the concentration at half-maximal activity (AC50) in experiment [1] (setting [10]) was 67.5 µM [falling, partial curve]; in experiment [1] (setting [9]) it was 42.6 µM [falling, partial curve].
With `C=CCN1CCc2cccc3c2[C@H]1Cc1ccc(O)c(O)c1-3`, the AC50 in experiment [7] (setting [12]) was 29.1 µM [falling, single point].
On to `CCCn1c(C)c(C(=O)c2ccc3ccccc3c2)c2ccccc21`, for which the concentration at half-maximal activity (AC50) was 33.8 µM [falling, full curve] in experiment [1] (setting [10]); 47.8 µM [falling, partial curve, poor fit] in experiment [1] (setting [9]); 5.17 µM [rising, partial curve, poor fit] in experiment [7] (setting [11]); 0.82 µM [falling, partial curve, poor fit] in experiment [2]. Moreover, in experiment [2], the viability change was -21.8%.
As for `O=C(Cc1ccc(Cl)c(Cl)c1)N1CCCCC1CN1CCCC1` (stereo unspecified), the AC50 in experiment [1] (setting [10]) is 53.6 µM [falling, partial curve, poor fit]; in experiment [1] (setting [9]) it was 67.5 µM [falling, partial curve, poor fit].
Regarding `C[C@@H]1O[C@@H](O[C@H]2C[C@@H](O)[C@]3(CO)[C@@H]4C(CC[C@]3(O)C2)[C@@]2(O)CC[C@H]([C@@H]3COC(=O)C3)[C@@]2(C)C[C@H]4O)[C@H](O)[C@H](O)[C@H]1O` (stereo partly specified), the AC50 in experiment [7] (setting [11]) was 1.84 µM [rising, partial curve]; in experiment [2], 1.64 µM [falling, full curve]. The viability change in experiment [2] was -45.8%.
As for `CCOC(=O)Nc1ccc(NCc2ccc(F)cc2)nc1N`, the concentration at half-maximal activity (AC50) in experiment [8] was 44.7 µM [falling, partial curve]. For the same compound, in experiment [2], the viability change is -7.42%.
On to `CC(=O)[C@H]1CC[C@H]2[C@@H]3CC[C@H]4C[C@H](O)CC[C@]4(C)[C@H]3C(=O)C[C@]12C`, for which, in experiment [2], the viability change is -5.42%.
Consider `NC(=O)COc1c(F)cc(SCCNS(=O)(=O)c2ccccc2)cc1F`, for which, in experiment [1] (setting [9]), the AC50 is 95.3 µM [falling, single point]. Also, the viability change in experiment [2] was -2.41%.
Turning to `O=NN(CCCl)C(=O)NCCCl`, the concentration at half-maximal activity (AC50) in experiment [1] (setting [9]) was 84.9 µM [falling, single point]; in experiment [4], 1.26 µM [falling, full curve, poor fit].
In the case of `CN1C2CCC1CC(OC(=O)c1cc(Cl)cc(Cl)c1)C2` (stereo unspecified), the AC50 is 42.6 µM [falling, full curve] in experiment [1] (setting [10]); 60.1 µM [falling, partial curve] in experiment [1] (setting [9]); 18.4 µM [falling, single point] in experiment [7] (setting [11]).
